Consider 1 substance from publication PMC6024880.

Protein sequences, listed by entry. Tags and fused reporters are not part of them. Residues count along the entry.
UniProt P02769, residues 25-607: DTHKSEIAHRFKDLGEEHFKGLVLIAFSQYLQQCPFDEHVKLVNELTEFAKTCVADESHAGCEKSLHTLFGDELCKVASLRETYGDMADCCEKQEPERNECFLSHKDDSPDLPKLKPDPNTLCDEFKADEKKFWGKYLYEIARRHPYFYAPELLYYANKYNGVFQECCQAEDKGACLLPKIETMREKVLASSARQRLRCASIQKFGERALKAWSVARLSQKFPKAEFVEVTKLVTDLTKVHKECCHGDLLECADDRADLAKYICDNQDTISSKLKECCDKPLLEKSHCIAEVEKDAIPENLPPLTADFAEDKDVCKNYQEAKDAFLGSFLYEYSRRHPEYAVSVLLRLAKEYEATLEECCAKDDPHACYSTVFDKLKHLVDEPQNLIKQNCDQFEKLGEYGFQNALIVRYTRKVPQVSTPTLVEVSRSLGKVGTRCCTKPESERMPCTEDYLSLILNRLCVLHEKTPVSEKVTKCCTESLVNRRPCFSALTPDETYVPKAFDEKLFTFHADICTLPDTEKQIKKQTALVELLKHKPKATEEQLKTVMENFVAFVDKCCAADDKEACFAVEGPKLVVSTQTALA
UniProt P01023, residues 24-1474: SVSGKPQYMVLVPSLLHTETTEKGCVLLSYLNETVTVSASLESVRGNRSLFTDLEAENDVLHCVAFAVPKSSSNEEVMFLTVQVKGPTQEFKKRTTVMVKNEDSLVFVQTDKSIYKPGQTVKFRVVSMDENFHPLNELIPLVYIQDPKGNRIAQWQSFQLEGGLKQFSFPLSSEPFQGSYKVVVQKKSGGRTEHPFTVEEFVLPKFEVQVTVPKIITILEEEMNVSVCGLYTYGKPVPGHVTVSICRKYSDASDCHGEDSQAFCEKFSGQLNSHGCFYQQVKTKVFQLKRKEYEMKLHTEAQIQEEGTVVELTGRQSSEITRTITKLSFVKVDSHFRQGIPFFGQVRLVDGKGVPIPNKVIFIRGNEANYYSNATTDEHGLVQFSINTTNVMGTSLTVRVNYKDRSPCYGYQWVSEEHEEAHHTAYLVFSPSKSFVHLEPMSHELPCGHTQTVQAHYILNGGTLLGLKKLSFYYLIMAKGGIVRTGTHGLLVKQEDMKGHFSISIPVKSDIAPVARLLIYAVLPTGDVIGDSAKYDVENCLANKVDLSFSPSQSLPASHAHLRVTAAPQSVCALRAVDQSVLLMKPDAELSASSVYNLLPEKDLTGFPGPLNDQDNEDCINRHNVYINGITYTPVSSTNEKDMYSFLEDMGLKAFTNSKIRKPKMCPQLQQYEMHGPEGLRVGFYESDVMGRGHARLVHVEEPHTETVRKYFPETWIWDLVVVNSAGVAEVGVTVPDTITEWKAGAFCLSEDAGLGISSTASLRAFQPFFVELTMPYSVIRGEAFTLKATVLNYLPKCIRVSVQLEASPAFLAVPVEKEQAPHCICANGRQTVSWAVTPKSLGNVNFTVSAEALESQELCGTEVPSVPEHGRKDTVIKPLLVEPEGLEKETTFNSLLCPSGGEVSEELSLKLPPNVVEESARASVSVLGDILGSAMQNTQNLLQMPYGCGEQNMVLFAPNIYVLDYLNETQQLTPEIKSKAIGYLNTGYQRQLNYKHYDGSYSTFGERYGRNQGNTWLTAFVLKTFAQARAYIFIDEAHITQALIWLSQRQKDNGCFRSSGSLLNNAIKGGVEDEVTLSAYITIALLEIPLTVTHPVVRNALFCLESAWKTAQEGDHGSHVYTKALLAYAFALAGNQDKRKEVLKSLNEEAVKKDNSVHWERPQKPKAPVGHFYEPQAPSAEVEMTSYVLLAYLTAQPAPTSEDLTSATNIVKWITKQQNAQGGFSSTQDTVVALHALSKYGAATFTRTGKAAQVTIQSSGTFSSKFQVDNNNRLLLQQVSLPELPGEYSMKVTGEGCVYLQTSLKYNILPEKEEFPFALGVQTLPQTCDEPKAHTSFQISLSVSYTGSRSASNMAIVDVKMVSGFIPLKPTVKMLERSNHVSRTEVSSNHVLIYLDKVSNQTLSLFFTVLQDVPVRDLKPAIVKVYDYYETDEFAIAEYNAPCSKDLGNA

These are yes or no findings as the source states them, for the method shown.

For the test, the target named is BSA (blocker of the ELISA plate) (bovine (by the name BSA)) (UniProt P02769). Put plainly: ELISA; αS aggregated 9 hr (2.5 μM; controls: monomeric αS, BSA blocker alone) adsorbed to a microplate, blocked with 150 μM BSA, some wells with 0-100 μM bisANS; CLU or α2M at 10 μg/mL in BSA blocking solution, 1 hr at RT; bound chaperone detected with kit antibodies and HRP; both purified. For orientation: An ELISA detects its analyte on a solid surface through an enzyme-linked reagent.

For “α2-macroglobulin (α2M), unlabelled (from UniProt P01023 24-1474)”, the binding result is “no binding (tested: 10 μg ⋅ mL^−1)”.
